Results as given in PubChem BioAssay AID330 (DTP/NCI, 2004).
The list does not hold the whole screen: it gathers tests that were run many times, whatever their T/C, doses with no T/C, and many T/C values between a quarter and a half above the control. Further doses and runs are listed elsewhere. T/C is the treated group as % of the vehicle group. Some doses have a count of surviving animals in place of a T/C: the source holds a T/C of zero for them, seemingly a mark for toxic or unscored doses. Some survivor counts are full or nearly so, which does not show that the dose was tolerated: the source hardly ever lists a survival T/C far under the control, and the zero likely stands for such cases as well. Counts of survivors are from the toxicity check (mostly the fifth day) where no day follows; animals may have died later. Schedule codes are those of the source, taken here to give the interval after Q, in days (D) or hours (H), and the number of doses after X. For survival time, this PubChem deposit counts one and a half times the control or more as active, and values a quarter to a half above the control carry no call in these data; other NCI protocols may use other cut-offs. Some entries were tested several times; their values stand side by side, smallest first. Some T/C values carry the count of animals alive at the toxicity check (mostly the fifth day); where none is given, no animal had died by that day.

System: P388 leukemia ip, CD2F1 mice, survival T/C
Experiment: NCI In Vivo Anticancer Drug Screen. Data for tumor model P388 Leukemia (intraperitoneal) in CD2F1 (CDF1) mice
Details: T/C endpoint: median survival time, higher T/C = longer survival
[1] = dose: 100.0 mg/kg/injection, schedule: Q01DX005 (ip), vehicle: saline with Tween-80
[2] = dose: 200.0 mg/kg/injection, schedule: Q01DX005 (ip), vehicle: saline with Tween-80
[3] = dose: 100.0 mg/kg/injection, schedule: Q01DX009 (ip), vehicle: saline
[4] = dose: 200.0 mg/kg/injection, schedule: Q01DX009 (ip), vehicle: saline
[5] = dose: 400.0 mg/kg/injection, schedule: Q01DX009 (ip), vehicle: saline
[6] = dose: 240.0 mg/kg/injection, schedule: Q01DX005 (ip), vehicle: saline with Tween-80
[7] = dose: 100.0 mg/kg/injection, schedule: Q01DX005 (ip), vehicle: Klucel (hydroxypropylcellulose) (HPC)

Nc1ncc(Cl)c2ccccc12
survivor count [1]: 3 of 5 | survivor count [2]: 0 of 5

O=C(O)CCC(=O)CCl
T/C (dose: 6.25 mg/kg/injection, schedule: Q01DX009 (ip), vehicle: saline): 127 % of control | T/C (dose: 12.5 mg/kg/injection, schedule: Q01DX009 (ip), vehicle: saline): 136 % of control | survivor count (dose: 100.0 mg/kg/injection, schedule: Q04DX003 (ip), vehicle: saline with Tween-80): 2 of 6

CCN(CC)C1C(Br)c2ccccc2C(OC)N1C#N (stereo unspecified)
survivor count (dose: 200.0 mg/kg/injection, schedule: Q01DX005 (ip), vehicle: distilled water + Tween-80 + alcohol): 0 of 6

CN(C)C(=S)S(C)(=O)=O
survivor count [3]: 0 of 6 | survivor count [4]: 0 of 6

Cn1cnc([N+](=O)[O-])c1Sc1ccncn1
T/C [3]: 125 % of control | T/C [4]: 131 % of control

CCN(CC)c1ccc(C(=C2C=CC(=[N+](CC)CC)C=C2)c2ccc(N(CC)CC)cc2)cc1
T/C (dose: 25.0 mg/kg/injection, schedule: Q01DX005 (ip), vehicle: saline with Tween-80): 125 % of control | T/C [1]: 129 % of control | survivor count [1]: 5 of 5 | survivor count [2]: 0 of 5

CC(=O)[C@H]1[C@H](O)C[C@H]2[C@@H]3CCC4=CC(=O)CC[C@]4(C)[C@@]3(F)[C@@H](O)C[C@@]21C
survivor count [5]: 3 of 6

O=C(CCN1C(=O)c2ccccc2C1=O)C(O)CCN1C(=O)c2ccccc2C1=O (stereo unspecified)
survivor count (dose: 50.0 mg/kg/injection, schedule: Q01DX005 (ip), vehicle: saline with Tween-80): 6 of 6 | survivor count [1]: 6 of 6

BrC1C2CCC3OC3C12 (stereo unspecified)
survivor count [6]: 4 of 6

CCNC(=O)Oc1ccc[nH]c1=O
T/C [3]: 126 % of control | T/C [4]: 129 % of control | survivor count [5]: 1 of 6 | T/C (dose: 400.0 mg/kg/injection, schedule: Q01DX009 (sc), vehicle: water): 125 % of control [5 of 6 alive] | survivor count (dose: 600.0 mg/kg/injection, schedule: Q01DX009 (ip), vehicle: saline): 0 of 6

N#CC(C#N)=NNc1ccc2cn[nH]c2c1
T/C [7]: 129 and 133 % of control | survivor count [7]: 5 of 5 | survivor count (dose: 200.0 mg/kg/injection, schedule: Q01DX005 (ip), vehicle: Klucel (hydroxypropylcellulose) (HPC)): 0 of 5

O=[N+]([O-])c1cnc(Sc2ccncn2)s1
survivor count (dose: 25.0 mg/kg/injection, schedule: Q01DX009 (ip), vehicle: saline): 4 of 6 | survivor count (dose: 50.0 mg/kg/injection, schedule: Q01DX009 (ip), vehicle: saline): 0 of 6 | survivor count [3]: 0 of 6 | survivor count [4]: 0 of 6

CC(C)COP(=O)(OCC(C)C)OCC(C)C.CC(C)COP(=O)(OCC(C)C)OCC(C)C.CC(C)COP(=O)(OCC(C)C)OCC(C)C.CC(C)COP(=O)(OCC(C)C)OCC(C)C.O.O.[Co+2].[O-][Cl+3]([O-])([O-])O
survivor count (dose: 200.0 mg/kg/injection, schedule: Q04DX003 (ip), vehicle: saline with Tween-80): 1 of 6 | survivor count (dose: 400.0 mg/kg/injection, schedule: Q04DX003 (ip), vehicle: saline with Tween-80): 0 of 6

O=C(CBr)c1cccc(OC(=O)c2ccccc2)c1
survivor count (dose: 25.0 mg/kg/injection, schedule: Q01DX009 (ip), vehicle: saline with Tween-80): 3 of 6

COc1cccc(NCNC2Nc3ccccc3N2)c1
survivor count (dose: 60.0 mg/kg/injection, schedule: Q01DX005 (ip), vehicle: saline with Tween-80): 6 of 6 | survivor count (dose: 120.0 mg/kg/injection, schedule: Q01DX005 (ip), vehicle: saline with Tween-80): 6 of 6 | survivor count [6]: 6 of 6
